Experimental data taken from PubChem BioAssay AID1487 (National Center for Advancing Translational Sciences (NCATS), 2009).
Where “and” joins values, the source holds several entries; their conditions need not be identical. Equal values may be shown once. The list shows a part of the results. Shown are side measurements of this screen, not its main read-out; they come without a call. Most of these compounds were active or inconclusive in the main read-out, so they are no random draw. The note in brackets gives the kind of curve behind each potency; many fits are weak.

Experiment: qHTS Assay for Modulators of Lamin A Splicing
Settings: HeLa LMNA splicing GFP/RFP minigene ratio, 48 h
How it was run: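 Read-out is the ratio of GFP to DsRed2 object intensity, acquired by 488 nm laser-scanning cytometry on HeLa lamin A-EGFP minigene reporter cells. Compound incubation 48 hrs at 37 °C in Opti-MEM with 2% FBS; DMSO 0.5% final.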

[1] = measured here: GFP splicing reporter channel
[2] = measured here: RFP viability control channel

Structure (SMILES) | AC50 [1] | AC50 [2]
CC(=O)OCC1=C(C(=O)O)N2C(=O)C(NC(=O)C(C)Cn3nc(C)c(Cl)c3C)C2SC1 (stereo not given) | 31.6 µM [rising, single point] | 
CCOc1ccc(CNC(=O)c2ccc(Sc3ccc(Cl)cc3)c(NC(C)=O)c2)cc1 | 17.8 µM [rising, single point] | 25.1 µM [rising, single point]
N#Cc1cccc(-c2nc(Nc3ccccc3)c3ccccc3n2)c1 |  | 6.31 µM [falling, partial curve, poor fit]
CCCCC1CC(CSC(=N)N)OC1=O (stereo not given) | 15.8 µM [rising, single point] | 
c1ccc2[nH]c(-c3cscn3)nc2c1 | 2.24 µM [rising, partial curve, poor fit] and 2.82 µM [rising, partial curve] | 
O=C(Nc1ccc(C(=O)N2CCN(c3ccc(F)cc3)CC2)cc1)c1nsc2ccccc12 | 0.316 µM [rising, partial curve, poor fit] | 
CCN1CCN(CCCNC(=O)c2ccc3nc(Cc4ccc(OC)cc4)oc3c2)CC1 |  | 0.00316 µM [falling, full curve, poor fit]
O=C(Nc1nc2nc(-c3ccccc3)cc(-c3ccccc3)n2n1)c1ccco1 |  | 22.4 µM [rising, single point]
CCS(=O)(=O)n1nc(-c2cccnc2)nc1NCc1ccc(F)cc1 | 6.31 µM [rising, single point] | 
CCCCN(CCCC)c1ncnc2c1cnn2-c1cccc(C)c1 |  | 10 µM [rising, single point]
O=C(NCc1ccc(F)cc1)c1ccc[nH]1 | 0.891 µM [falling, full curve, poor fit] | 1.26 µM [falling, full curve, poor fit]
C#CC[N+](C)(C)CCCCCCCCCC | 35.5 µM [falling, single point] | 
Cc1ccc([N+](=O)[O-])cc1NC(=O)c1ccc(CSc2ccccc2)cc1 | 5.62 µM [falling, single point] | 
O=C(CCN1CCN(c2ccc(Cl)cc2)CC1)Nc1ccccc1F | 8.91 µM [rising, partial curve] | 11.2 µM [rising, partial curve]
COc1ccc2[nH]cc(CCNc3ncnc4ccc(-c5ccc(C(=O)N(C)C)cc5)cc34)c2c1 | 20 µM [falling, partial curve] | 35.5 µM [falling, partial curve, poor fit]
COc1ccc2cc(CN(Cc3ccco3)C(=S)NCC3CCCO3)c(=O)[nH]c2c1 (stereo not given) | 0.00316 µM [falling, full curve, poor fit] | 
CC(=O)N1CCCc2cc(S(=O)(=O)N3CCC(C(=O)N(Cc4ccccc4)C(C)C)CC3)ccc21 |  | 0.02 µM [falling, full curve, poor fit]
C=CCNC(=O)c1ccc(-c2nc(-c3ccc(Cl)c(Cl)c3)cs2)cc1 | 25.1 µM [falling, partial curve, poor fit] | 35.5 µM [falling, single point]
N#Cc1cc([N+](=O)[O-])ccc1Oc1cccc(/C=N/NC(=O)c2ccc(Cl)cc2)c1 |  | 22.4 µM [rising, single point]
COc1ccccc1NC(=O)CN1CCC(c2nc3ccccc3[nH]2)CC1 | 0.0224 µM [rising, full curve, poor fit] | 
Cc1ccc(C(=O)Nc2ncc(Cc3ccc(F)cc3)s2)o1 | 31.6 µM [rising, single point] | 15.8 µM [rising, single point]
O=S(=O)(Nc1ccc(-c2ccc(N3CCCCC3)nn2)cc1)c1ccc(OC(F)(F)F)cc1 | 35.5 µM [falling, single point] | 
CCCn1cc(S(=O)(=O)c2cccc(Cl)c2)c(=O)c2cc(F)c(N3CCOCC3)cc21 |  | 2.24 µM [rising, partial curve, poor fit]
Cc1csc(NC(=O)Cc2nn(C)c(=O)c3ccccc23)n1 | 4.47 µM [rising, single point] | 12.6 µM [rising, single point]
Cc1ccc(S(=O)(=O)/N=C2/NC(=O)/C(=C/c3ccc(Br)o3)S2)cc1 |  | 35.5 µM [rising, single point]
CC(C)(C)c1ccc(/C=C/C(=O)Nc2ccncc2)cc1 | 3.98 µM [rising, full curve] | 5.62 µM [rising, full curve]
COc1cc(-c2nnc(SCc3cc(=O)oc4cc(C)ccc34)o2)cc(OC)c1OC | 5.62 µM [rising, full curve] | 15.8 µM [rising, partial curve]

Structure (SMILES) | AC50 [1] | AC50 [2]
CCOc1ccccc1-c1nc(-c2ccc(C)nc2OC)no1 |  | 11.2 µM [rising, single point]
CCC(C)(C)C(=O)O[C@@H]1C[C@H](C)C=C2C=C[C@H](C)[C@@H](CC[C@H]3C[C@@H](O)CC(=O)O3)[C@H]21 | 14.1 µM [falling, single point] | 0.000355 µM [rising, full curve, poor fit]
O=C(/C=C/c1cccc(Cl)c1)N1CCC(Cc2ccccc2)CC1 | 25.1 µM [rising, single point] | 25.1 µM [rising, single point]
COc1ccc(/C=N/NC(=O)c2ccc(O)cc2)cc1CN1CCCc2ccccc21 |  | 15.8 µM [rising, single point]
CCOC(=O)N(Cc1ccccc1)C(C(=O)O)C(C(=O)O)N(Cc1ccccc1)C(=O)OCC (stereo not given) |  | 35.5 µM [rising, single point]
C#CCn1c(C)cc(C)c(S(=O)(=O)c2ccccc2)c1=O | 3.55 µM [falling, partial curve] | 3.98 µM [falling, partial curve]
O=C1CC(N2CCC(c3nc4ccccc4o3)CC2)C(=O)N1c1ccc(Cl)c(C(F)(F)F)c1 (stereo not given) | 35.5 µM [rising, single point] | 20 µM [rising, single point]
O=C(CSC1=NCCN1)Nc1cccc(C(F)(F)F)c1 | 35.5 µM [falling, single point] | 0.00447 µM [falling, full curve, poor fit]
CCOc1ccc(NC(=O)CN2CCC(n3cnc4cc(F)ccc43)CC2)cc1 |  | 0.0251 µM [rising, full curve, poor fit]
O=[N+]([O-])c1ccc2[nH]c(O)c(N=NC(=S)NCC3CCCO3)c2c1 (stereo not given) | 0.0141 µM [rising, single point] | 
N#Cc1cc2c(=O)n3ccccc3nc2n(CCCn2ccnc2)c1=N |  | 8.91 µM [rising, partial curve]
CCOC(=O)Cc1c(C)nc2c(-c3ccccc3OC)c(C)nn2c1C | 25.1 µM [rising, partial curve, poor fit] | 
Cc1ccc(NC(=O)c2cc(-c3ccc(C)o3)nc3ccccc23)nc1 |  | 31.6 µM [rising, single point]
CCOC(=O)c1cccc(NC(=O)Cn2nc3c(cc2=O)CCCC3)c1 |  | 0.0501 µM [falling, full curve, poor fit]
OC(CN1c2ccccc2Sc2ccccc21)Cn1nnc2ccccc21 (stereo not given) |  | 12.6 µM [rising, partial curve]
CCOC(=O)c1c(NC(=O)CSc2nnc3ccccn23)sc2c1CCC2 | 1.12 µM [rising, full curve, poor fit] | 1.58 µM [rising, full curve, poor fit]
Cc1c(Cl)cccc1-n1ncc(C(=O)N2CCN(C)CC2)c1C1CCN(C(=O)OC(C)(C)C)CC1 |  | 6.31 µM [falling, single point]
Cc1cccc(C(=O)NNC(=O)c2ccccc2-n2cccc2)c1 |  | 10 µM [falling, partial curve, poor fit]
Cn1cc(/C=N\O)nc2c(=O)n(-c3ccccc3)c(=O)nc1-2 | 3.16 µM [rising, full curve] | 4.47 µM [rising, full curve, poor fit]
CCOC(=O)c1sc(Nc2cccc(C)c2C)nc1C | 35.5 µM [rising, single point] | 
CN(c1nc2nonc2nc1NC1CC1)C1CCOC1 (stereo not given) | 14.1 µM [falling, single point] | 
Cc1nn(-c2ccccc2)c(N)c1Sc1cccc([N+](=O)[O-])c1 |  | 31.6 µM [rising, single point]
CCNC(=O)COC(=O)CCC(=O)c1cccs1 | 0.0178 µM [falling, full curve, poor fit] | 0.02 µM [falling, full curve]
Cc1cccc(NC(=O)C(C)OC(=O)c2ccccc2NS(=O)(=O)c2cc(C)c(C)c([N+](=O)[O-])c2)c1 (stereo not given) | 17.8 µM [rising, single point] | 35.5 µM [rising, single point]
Cc1ccc(/C=N/NC(=O)c2ccccc2OCc2cccc(Br)c2)o1 | 12.6 µM [falling, partial curve] | 12.6 µM [falling, partial curve]
CC1=NN(C(=O)c2ccc(Br)cc2)C(O)(c2ccccc2)C1 (stereo not given) | 14.1 µM [rising, partial curve, poor fit] | 11.2 µM [rising, partial curve, poor fit]
CCn1c2c(c(=N)c3c1CCC3)CCC2 | 7.94 µM [rising, partial curve] | 14.1 µM [rising, partial curve]

Quoted from the listing.
Under AC50 [1], O=[N+]([O-])c1ccc2[nH]c(O)c(N=NC(=S)NCC3CCCO3)c2c1 (stereo not given) is listed with 0.0141 µM [rising, single point]
Under AC50 [2], Cc1nn(-c2ccccc2)c(N)c1Sc1cccc([N+](=O)[O-])c1 is listed with 31.6 µM [rising, single point]
